Paper PMC10049986
These are yes or no findings as the source states them, for the method shown. Binding seen in cells or lysates may run through a third protein. Some results given as binding are weak or reduced against the parent protein; the word gives no strength. Tags and fused reporters may be left off the sequences shown.

Tests used:
Details in all cases: remark: other sources report otherwise
[1] = target: T1, pTRB:TRB-FLAG TRB2 (Telomere Repeat Binding factor 2 with 3xFLAG) (Arabidopsis thaliana), Q9FJW5; experiment: co-IP; seedlings of FLAG-TRB x Myc-JMJ14 crossed lines; anti-FLAG M2 Affinity Gel, 2 h at 4 °C; IP buffer 50 mM Tris HCl pH 7.5, 150 mM NaCl, 1% TritonX-100; eluted with 3xFLAG peptide; western blot
T1 chain: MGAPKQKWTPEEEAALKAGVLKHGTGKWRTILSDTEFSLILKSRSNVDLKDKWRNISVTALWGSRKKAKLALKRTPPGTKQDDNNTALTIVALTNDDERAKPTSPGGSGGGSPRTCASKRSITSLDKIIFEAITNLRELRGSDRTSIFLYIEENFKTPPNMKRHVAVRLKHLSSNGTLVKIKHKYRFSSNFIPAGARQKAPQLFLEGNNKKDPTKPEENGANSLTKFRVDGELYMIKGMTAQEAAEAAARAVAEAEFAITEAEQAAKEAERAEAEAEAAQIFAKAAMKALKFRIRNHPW

[2] = target: T2, pTRB:TRB-FLAG TRB3 (Telomere Repeat Binding factor 3 with 3xFLAG) (Arabidopsis thaliana), Q9M2X3; experiment: as above
T2 chain: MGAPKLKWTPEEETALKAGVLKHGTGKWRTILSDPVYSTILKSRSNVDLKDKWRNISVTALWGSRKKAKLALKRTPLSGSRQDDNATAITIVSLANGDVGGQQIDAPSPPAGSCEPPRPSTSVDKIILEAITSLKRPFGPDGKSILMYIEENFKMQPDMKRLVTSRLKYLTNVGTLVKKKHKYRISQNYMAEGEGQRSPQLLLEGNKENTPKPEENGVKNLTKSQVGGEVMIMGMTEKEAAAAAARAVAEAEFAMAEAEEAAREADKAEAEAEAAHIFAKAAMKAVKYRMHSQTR

[3] = target: T3, pTRB:TRB-FLAG TRB1 (Telomere Repeat Binding factor 1 with 3xFLAG) (Arabidopsis thaliana), Q8VWK4; experiment: as above
T3 chain: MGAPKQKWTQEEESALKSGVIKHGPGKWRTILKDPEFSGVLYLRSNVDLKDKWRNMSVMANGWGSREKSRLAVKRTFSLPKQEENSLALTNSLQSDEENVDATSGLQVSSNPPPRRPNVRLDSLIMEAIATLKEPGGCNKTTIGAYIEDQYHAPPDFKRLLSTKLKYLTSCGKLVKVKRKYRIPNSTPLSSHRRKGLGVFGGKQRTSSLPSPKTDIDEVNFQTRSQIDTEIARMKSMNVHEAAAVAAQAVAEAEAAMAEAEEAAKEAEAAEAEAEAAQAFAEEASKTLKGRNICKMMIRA

[4] = target: T4, TRB3 fused with the C-terminal fragment of YFP (Arabidopsis thaliana), Q9M2X3; experiment: split reporter; BiFC: N-terminal fragment of YFP on JMJ14 or NAC052, C-terminal fragment of YFP on TRBs; transient co-expression in Nicotiana benthamiana leaves; confocal microscopy; empty vector as control
T4 chain: T2 chain

[5] = target: T5, TRB2 fused with the C-terminal fragment of YFP (Arabidopsis thaliana), Q9FJW5; experiment: as above
T5 chain: T1 chain

[6] = target: T6, TRB1 fused with the C-terminal fragment of YFP (Arabidopsis thaliana), Q8VWK4; experiment: as above
T6 chain: T3 chain

Measured: binding

B1: pJMJ14:JMJ14-Myc (JUMONJI14 with 9xMyc), Q8GUI6 1-954 (protein)
chain: MDQLASLAESVAMEEDSEKQSIKGESSLEPDSTPSSPKITARWNPSEACRPLVDDAPIFYPTNEDFDDPLGYIEKLRSKAESYGICRIVPPVAWRPPCPLKEKKIWENSKFPTRIQFIDLLQNREPIKKSTKTKKRKRRRISKIGYTRRKRDSGCDTASSGSSDSEGKFGFQTGPDFTLEEFQKYDEYFKECYFQSEDHPGSKASENKKFKPKVKDLEGEYWRIVEQATDEVEVYYGADLETKKFGSGFPKYKPGYPISEADQYSQCGWNLNNLSRLPGSVLAFESCDISGVIVPWLYVGMCFSTFCWHVEDHHLYSMNYLHTGDPKVWYGIPGNHAESFENVMKKRLPDLFEEQPDLLHQLVTQLSPRILKEEGVPVYRAVQRSGEFILTFPKAYHSGFNCGFNCAEAVNVAPVDWLVHGQNAVEGYSKQRRKSSLSHDKLLLGAAMEATYCLWELSLSKKKTPVIARWKRVCSEDGLLTKAVKKRVQMEEERLNHLQDGFSLRKMEGDFDNKRERECFLCFYDLHMSASSCKCSPNRFACLIHAKDLCSCESKDRYILIRHTLDELWALVRALEGDLDAIDLWASKCRDQYPSQHPRAREYAYLKSAPCIKSRGSSKVQQREQNNLQLVSERLQSDLTSNKEVQLKQDGDSDVNRHGHESERNHVHGITDKSAVTDVKLGVGGKFDEKKISVESQNPHSVSDVGCSELAKKVDGCLGGKDQNAATNRLSLSVELLSSGSLVVKKLWCSKQAIYPKGFKSRVKFLSVLDPTNLTNYISEVLDAGLLGPLFRVSVEDYPTENFSNVSAEKCWQMVTQRLKLEIIKKCDQPVSSLTSLQPLESINGLEMFGFLSPHVIKVVEALDPKHQLEEYWNQKAVKLFGAEPIKEGEKDDTEKGGASDPSLDRDTRLLRGLLKKATPEELVMMHGLLCGETRNTELKEELSTLVDKMEISP
binds: [1] | [2] | [3]

B2: JMJ14 fused with the N-terminal fragment of YFP, Q8GUI6 1-954 (protein)
chain: B1 chain
binds: [4] | [5] | [6]

B3: NAC052 fused with the N-terminal fragment of YFP, Q9SQY0 1-451 (protein)
chain: MGRESVAVVTAPPSATAPGTASVATSLAPGFRFHPTDEELVSYYLKRKVLGQPVRFDAIGEVDIYKHEPWDLAVFSRLKTRDQEWYFYSALDKKYGNGARMNRATNRGYWKATGKDREIRRDILLLGMKKTLVFHSGRAPDGLRTNWVMHEYRLVEYETEKNGNLVQDAYVLCRVFHKNNIGPPSGNRYAPFMEEEWADDEGALIPGIDVKLRLEPPPVANGNDQMDQEIQSASKSLININEPPRETAPLDIESDQQNHHENDLKPEEHNNNNNYDENEETLKREQMEEEERPPRPVCVLNKEAPLPLLQYKRRRQSESNNNSSRNTQDHCSSTTTTVDNTTTLISSSAAATNTAISALLEFSLMGISDKKEKPQQPLRPHKEPLPPQTPLASPEEKVNDLQKEIHQMSVERETFKLEMMSAEAMISILQSRIDALRQENEELKKNNANGQ
binds: [4] | [5] | [6]
